# Reference: PMC5996148
# Values joined by “and” are separate entries in the source; they are usually repeats but may differ in a detail not shown here. Equal values may be shown once. The list shows a part of the results.
# How the values were obtained:
# Assay in all cases: protein microarray (ProtoArray v5.0), streptavidin-Alexa Fluor 647
# Details in all cases: 3'-biotin; 20 mM Tris (pH 7.5), 5 mM MgCl2, 100 mM KCl, 0.1% Tween-20, A/T-rich and random oligonucleotide blockers; temperature not stated; high values mean tight binding
# MRS2L (human) = tested on: MRS2L (human)
# MTAP (human) = tested on: MTAP (human)
# MTMR1 (human) = tested on: MTMR1 (human)
# MTMR2 (human) = tested on: MTMR2 (human)
# MYCBP (human) = tested on: MYCBP (human)
# [1] = tested on: Malate dehydrogenase, cytoplasmic (human)
# Malcavernin (human) = tested on: Malcavernin (human)
# Mammaglobin-A (human) = tested on: Mammaglobin-A (human)
# [2] = tested on: Mannose-6-phosphate receptor-binding protein 1 (human)
# [3] = tested on: Mediator of RNA polymerase II transcription subunit 22 (human)
sequence,measurement,setting,value
GGTGACAGGGGTATGGGGAGGGG [G4-2 biotinylated (Ct1)],binding signal,MRS2L (human),-0.398 z-score
same,binding signal,MTAP (human),-0.383 z-score and -0.37 z-score
same,binding signal,MTMR1 (human),-0.382 z-score
same,binding signal,MTMR2 (human),-0.41 z-score
same,binding signal,MYCBP (human),-0.396 z-score
same,binding signal,[1],-0.363 z-score
same,binding signal,Malcavernin (human),-0.392 z-score
same,binding signal,Mammaglobin-A (human),-0.394 z-score
same,binding signal,[2],-0.403 z-score
same,binding signal,[3],-0.396 z-score

# At a glance, some entries already given.
sequence,measurement,setting,value
GGTGACAGGGGTATGGGGAGGGG [G4-2 biotinylated (Ct1)],binding signal,MRS2L (human),-0.398 z-score
same,binding signal,MTAP (human),-0.383 z-score and -0.37 z-score
